PubChem BioAssay AID1508597 – Cure First | 2020
Assay: 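Genes whose silencing sensitises or protects ovarian cancer cells against rucaparib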 (primary screen). Cells: human ovarian carcinoma lines grown from tumours: OCI-P5x (papillary serous) and OCI-C5x (clear cell). Reagents: siRNA pool against human genes, 1.25 pmol siRNA per well. Time to read-out: 72 h or 96 h, depending on the cell culture. Challenge: rucaparib 20 µM (about IC30) or vehicle, present until read-out. Rucaparib or vehicle: Rucaparib. Cell line: OCI-C5x (clear cell). Detection: 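Luminescent ATP-based viability assay read 72 or 96 h after transfection, depending on culture, given as normalised percent viability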. Direction: viability, normalised: higher = more viable cells remaining. Call rule: 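a well counts as a hit if its normalised viability is under 80 percent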. Meaning of the calls: active = viability under 80%; inactive = viability 80% or more.
This is a random part of the about 2,100 reagents, in one setting of the screen. 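Calls flag viability under 80% in either arm, not effects specific to rucaparib; the reference for percent is not stated.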 Unmarked entries are inactive. Not given: the 100% reference.

| gene knocked down | technical replicate | viability, normalised (%) |
| --- | --- | --- |
| DCLK2 | 1 | 47.7 (active) |
| DCLK2 | 2 | 46.5 (active) |
| DCLK2 | 3 | 47.9 (active) |
| SSB | 1 | 58.4 (active) |
| SSB | 2 | 71.3 (active) |
| SSB | 3 | 58.8 (active) |
| ZDHHC2 | 1 | 74.1 (active) |
| ZDHHC2 | 2 | 57.5 (active) |
| ZDHHC2 | 3 | 51.6 (active) |
| PKN3 | 1 | 45.5 (active) |
| PKN3 | 2 | 51.6 (active) |
| PKN3 | 3 | 67.3 (active) |
| ESPL1 | 1 | 55 (active) |
| ESPL1 | 2 | 57.9 (active) |
| ESPL1 | 3 | 61.3 (active) |
| SUMO1 | 1 | 48.5 (active) |
| SUMO1 | 2 | 38.2 (active) |
| SUMO1 | 3 | 44.2 (active) |
| IPMK | 1 | 52.4 (active) |
| IPMK | 2 | 59.9 (active) |
| IPMK | 3 | 57 (active) |
| DAPK1 | 1 | 71.1 (active) |
| DAPK1 | 2 | 79.4 (active) |
| DAPK1 | 3 | 91.2 |

2 successive entries from above, quoted:
| gene knocked down | technical replicate | viability, normalised (%) |
| --- | --- | --- |
| SUMO1 | 3 | 44.2 (active) |
| IPMK | 1 | 52.4 (active) |
